{"source": "patent US9750753B1", "about": "“Method of treating diseases associated with LRRK2 mutation using hexachlorophene” (University of South Florida, priority 2014, dated 2017)", "origin": "cited, not measured here", "key": {"[1]": {"test_system": "LRRK2", "details": "compound alone; dose and time dependent manner; cited from earlier work"}, "[2]": {"test_system": "rats", "details": "pre-treatment prior to administration of B10, rats; cited from earlier work"}}, "note": "At least one structure is not confirmed: it was looked up by name or label, or the drawing left a doubt.", "data": [{"compound": "CC1=C(O)C(=O)C=C2C1=CC=C1[C@@]2(C)CC[C@@]2(C)[C@@H]3C[C@](C)(C(=O)O)CC[C@]3(C)CC[C@]12C", "note": "[celestrol, celastrol]", "values": [{"measurement": "LRRK2 levels in cells", "setting": "[1]", "value": "reduced"}]}, {"compound": "CCC1(c2ccccc2)C(=O)NC(=O)NC1=O", "note": "[phenobarbital]", "values": [{"measurement": "protection from toxicity induced by B10", "setting": "[2]", "value": "lessened toxicity"}]}]}
